Data set [1] is described as follows: Fmoc solid-phase peptide synthesis. The conditions noted are these: whole synthesis.
Data set [2] is described as follows: general procedure: Fmoc solid-phase peptide synthesis. The conditions noted are these: whole synthesis, one disulfide bridge, sequence written open.

Positions of bridges follow the written chain, without caps; N, C: chain ends.

The values below come from patent publication US20030199671A1 (priority 2001, published 2003).

Consider “Ac-GDDHMCVYTTWGELIWCDNHEPGPEGGGK-NH2 (disulfide 6-17; SMILES CC[C@H](C)[C@@H]1NC(=O)[C@H](CC(C)C)NC(=O)[C@H](CCC(=O)O)NC(=O)CNC(=O)[C@H](Cc2c[nH]c3ccccc23)NC(=O)[C@H]([C@@H](C)O)NC(=O)[C@H]([C@@H](C)O)NC(=O)[C@H](Cc2ccc(O)cc2)NC(=O)[C@H](C(C)C)NC(=O)[C@@H](NC(=O)[C@H](CCSC)NC(=O)[C@H](Cc2c[nH]cn2)NC(=O)[C@H](CC(=O)O)NC(=O)[C@H](CC(=O)O)NC(=O)CNC(C)=O)CSSC[C@@H](C(=O)N[C@@H](CC(=O)O)C(=O)N[C@@H](CC(N)=O)C(=O)N[C@@H](Cc2c[nH]cn2)C(=O)N[C@@H](CCC(=O)O)C(=O)N2CCC[C@H]2C(=O)NCC(=O)N2CCC[C@H]2C(=O)N[C@@H](CCC(=O)O)C(=O)NCC(=O)NCC(=O)NCC(=O)N[C@@H](CCCCN)C(N)=O)NC(=O)[C@H](Cc2c[nH]c3ccccc23)NC1=O)”, for which the difficulty met entry in data set [1] is “synthesis and folding are problematic, primarily due to beta rearrangement at the Asp-Asp-His position”.

Turning to “Ac-GDRRACSRDWSGALVWCAGHEPGPEGGGK-NH2 (N-acetyl, C-amide; Fc region binding polypeptide)”, in data set [2], the difficulty met entry is “is also difficult, primarily due to the N-terminal Arg-Arg positions giving the possibility of deletion sequences”.
